Data as given in article PMC2614475.
Read-outs that look alike come from different tables or passages of the source. These are yes or no findings as the source states them, for the method shown. In cells and extracts the contact can be indirect. Some entries that bind do so weakly or less than the wild type.

By UniProt entry, the sequences of proteins in these tests, tags left out.
UniProt Q9Z340: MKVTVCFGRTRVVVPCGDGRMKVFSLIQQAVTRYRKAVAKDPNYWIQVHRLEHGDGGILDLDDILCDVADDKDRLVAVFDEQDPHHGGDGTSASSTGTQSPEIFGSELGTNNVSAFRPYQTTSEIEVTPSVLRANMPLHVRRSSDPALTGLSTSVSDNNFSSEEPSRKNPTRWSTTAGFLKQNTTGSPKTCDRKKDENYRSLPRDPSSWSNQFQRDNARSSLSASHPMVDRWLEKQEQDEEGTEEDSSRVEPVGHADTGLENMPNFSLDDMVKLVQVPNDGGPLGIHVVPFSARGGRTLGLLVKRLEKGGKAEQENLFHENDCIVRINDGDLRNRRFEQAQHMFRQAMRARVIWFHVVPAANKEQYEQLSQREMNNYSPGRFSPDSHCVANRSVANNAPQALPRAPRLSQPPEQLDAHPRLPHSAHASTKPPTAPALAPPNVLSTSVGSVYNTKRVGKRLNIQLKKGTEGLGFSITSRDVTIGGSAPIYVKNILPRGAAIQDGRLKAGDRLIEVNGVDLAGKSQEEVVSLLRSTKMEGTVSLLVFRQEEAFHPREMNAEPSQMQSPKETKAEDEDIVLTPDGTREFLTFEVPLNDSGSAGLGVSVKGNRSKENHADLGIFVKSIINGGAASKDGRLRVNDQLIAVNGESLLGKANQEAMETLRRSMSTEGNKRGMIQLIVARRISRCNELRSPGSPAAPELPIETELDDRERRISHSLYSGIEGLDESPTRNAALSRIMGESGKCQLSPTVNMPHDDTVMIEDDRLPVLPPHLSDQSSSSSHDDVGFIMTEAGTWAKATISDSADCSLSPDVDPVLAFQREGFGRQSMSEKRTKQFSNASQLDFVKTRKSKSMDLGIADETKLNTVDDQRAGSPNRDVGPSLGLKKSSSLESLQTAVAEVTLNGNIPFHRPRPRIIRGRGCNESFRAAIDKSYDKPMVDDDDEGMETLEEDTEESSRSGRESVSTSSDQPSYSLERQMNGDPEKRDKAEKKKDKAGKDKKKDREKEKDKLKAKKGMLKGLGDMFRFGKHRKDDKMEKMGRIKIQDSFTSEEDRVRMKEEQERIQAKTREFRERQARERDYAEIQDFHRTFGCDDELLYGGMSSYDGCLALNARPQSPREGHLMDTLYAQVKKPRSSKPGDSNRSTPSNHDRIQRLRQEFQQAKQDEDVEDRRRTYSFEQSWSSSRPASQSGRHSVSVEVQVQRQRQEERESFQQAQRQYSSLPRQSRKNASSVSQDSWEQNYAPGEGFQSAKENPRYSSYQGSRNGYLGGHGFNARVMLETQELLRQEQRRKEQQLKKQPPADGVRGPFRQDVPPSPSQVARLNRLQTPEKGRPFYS

T1: podocin (rat (endogenous in rat glomeruli)) (UniProt Q8K4G9)
T1 sequence: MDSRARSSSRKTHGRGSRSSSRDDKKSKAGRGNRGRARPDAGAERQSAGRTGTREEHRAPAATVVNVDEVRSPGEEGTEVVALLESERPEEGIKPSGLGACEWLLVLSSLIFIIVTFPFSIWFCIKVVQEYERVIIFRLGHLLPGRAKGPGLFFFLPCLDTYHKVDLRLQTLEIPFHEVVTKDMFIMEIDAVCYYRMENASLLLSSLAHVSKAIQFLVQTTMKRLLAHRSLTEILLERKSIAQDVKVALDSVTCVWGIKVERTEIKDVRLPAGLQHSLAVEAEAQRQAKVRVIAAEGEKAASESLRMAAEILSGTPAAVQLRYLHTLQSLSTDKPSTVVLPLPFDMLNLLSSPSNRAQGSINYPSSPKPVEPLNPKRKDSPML

T2: podocin (rat (endogenous in rat glomeruli)), Q8K4G9
T2 chain: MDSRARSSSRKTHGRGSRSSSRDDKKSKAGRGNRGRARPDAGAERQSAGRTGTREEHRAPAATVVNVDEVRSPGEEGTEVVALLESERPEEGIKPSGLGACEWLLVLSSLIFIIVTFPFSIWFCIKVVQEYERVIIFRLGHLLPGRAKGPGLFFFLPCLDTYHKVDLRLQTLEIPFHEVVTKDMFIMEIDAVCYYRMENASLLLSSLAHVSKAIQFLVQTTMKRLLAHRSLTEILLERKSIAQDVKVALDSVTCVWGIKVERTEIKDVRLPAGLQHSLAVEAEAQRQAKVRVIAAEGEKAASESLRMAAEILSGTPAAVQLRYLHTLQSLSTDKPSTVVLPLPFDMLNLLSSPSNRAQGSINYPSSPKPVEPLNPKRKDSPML


Experiments:
[1] = biological target: T1, podocin (rat (endogenous in rat glomeruli)); test: co-IP; immunoprecipitation with anti-podocin antibody (control: normal rabbit IgG) from S1 (0.1% TritonX-100) and S2 (RIPA buffer) fractions of rat glomeruli incubated 30 min with or without 20 µM myr-ζPS peptide; immunoblotting
[2] = biological target: PAR3 (rat (endogenous in rat glomeruli)) (UniProt Q9Z340); test: co-IP; immunoprecipitation of endogenous PAR3 with two independent anti-PAR3 antibodies (UBI, C2-2AP) from rat glomerular fractions Gl-S1 (IP buffer, 0.1% TritonX-100) and Gl-S2 (1% TritonX-100, 20 mM CHAPS); immunoblotting
[3] = biological target: T1, podocin (rat (endogenous in rat glomeruli)); test: co-IP; immunoprecipitation with anti-podocin antibody (control: normal rabbit IgG) from S1 (0.1% TritonX-100) and S2 (RIPA buffer) fractions of rat glomeruli incubated 30 min with or without 20 µM myr-ζPS peptide; immunoblotting; remark: listed apart in the source
[4] = biological target: T2, podocin (rat (endogenous in rat …)); test: as above; conditions: remark: other sources report otherwise

Row | Molecule | binding [2] | also measured
1 | PAR3 (from UniProt Q9Z340 1-1337) | – | binding [1]: binds
2 | aPKCλ (enzyme, UniProt F1M7Y5 1-596) MPTQRDSSTMSHTVACGGGGDHSHQVRVKAYYRGDIMITHFEPSISFEGLCSEVRDMCSFDNEQPFTMKWIDEEGDPCTVSSQLELEEAFRLYELNKDSELLIHVFPCVPERPGMPCPGEDKSIYRRGARRWRKLYCANGHTFQAKRFNRRAHCAICTDRIWGLGRQGYKCINCKLLVHKKCHKLVTIECGRHSLPPEPMMPMDQSSMHPDHTQTVIPYNPSSHESLDQVGEEKEAMNTRESGKASSSLGLQDFDLLRVIGRGSYAKVLLVRLKKTDRIYAMKVVKKELVNDDEDIDWVQTEKHVFEQASNHPFLVGLHSCFQTESRLFFVIEYVNGGDLMFHMQRQRKLPEEHARFYSAEISLALNYLHERGIIYRDLKLDNVLLDSEGHIKLTDYGMCKEGLRPGDTTSTFCGTPNYIAPEILRGEDYGFSVDWWALGVLMFEMMAGRSPFDIVGSSDNPDQNTEDYLFQVILEKQIRIPRSLSVKAASVLKSFLNKDPKERLGCHPQTGFADIQGHPFFRNVDWDMMEQKQVVPPFKPNISGEFGLDNFDSQFTNEPVQLTPDDDDIVRKIDQSEFEGFEYINPLLMSAEECV | binds | binding [3]: binds
3 | nephrin (protein, UniProt Q9R044 37-1252) ESPVPTSAPRGFWALSENLTAVEGTTVKLWCGVRAPGSVVQWAKDGLLLGPNPKMPGFPRYSLEGDRAKGEFHLLIEACDLSDDAEYECQVGRSELGPELVSPKVILSILVSPKVLLLTPEAGSTVTWVAGQEYVVTCVSGDAKPAPDITFIQSGRTILDVSSNVNEGSEEKLCITEAEARVIPQSSDNGQLLVCEGSNPALDTPIKASFTMNILFPPGPPVIDWPGLNEGHVRAGENLELPCTARGGNPPATLQWLKNGKPVSTAWGTEHAQAVAHSVLVMTVRPEDHGARLSCQSYNSVSAGTQERSITLQVTFPPSAITILGSVSQSENKNVTLCCLTKSSRPRVLLRWWLGGRQLLPTDETVMDGLHGGHISMSNLTFLVRREDNGLPLTCEAFSDAFSKETFKKSLTLNVKYPAQKLWIEGPPEGQYIRTGTRVRLVCLAIGGNPDPSLIWFKDSRPVSEPRQPQEPRRVQLGSVEKSGSTFSRELVLIIGPPDNRAKFSCKAGQLSASTQLVVQFPPTNLTILANSSALRPGDALNLTCVSISSNPPVNLSWDKEGERLEDVAAKPQSAPFKGSAASRSVFLRVSSRDHGQRVTCRAHSEALRETVSSFYRFNVLYPPEFLGEQVRAVTVVEQGQVLLPVSVSANPAPEAFNWTFRGYRLSPAGGPRHRILSGGALQLWNVTRADDGFYQLHCQNSEGTAEALLKLDVHYAPTIRALRDPTEVNVGGSVDIVCTVDANPILPEMFSWERLGEEEEDLNLDDMEKVSKGSTGRLRIRQAKLSQAGAYQCIVDNGVAPAARGLVRLVVRFAPQVDQPTPLTKVAAAGDSTSSATLHCRARGVPNIDFTWTKNGVPLDLQDPRYTEHRYHQGVVHSSLLTIANVSAAQDYALFKCTATNALGSDHTNIQLVSISRPDPPLGLKVVSISPHSVGLEWKPGFDGGLPQRFQIRYEALETPGFLHVDVLPTQATTFTLTGLKPSTRYRIWLLASNALGDSGLTDKGIQVSVTTPGPDQAPEDTDHQLPTELPPGPPRLPLLPVLFAVGGLLLLSNASCVGGLLWRRRLRRLAEEISEKTEAGSEDRIRNEYEESQWTGDRDTRSSTVSTAEVDPNYYSMRDFSPQLPPTLEEVLYHQGAEGEDMAFPGHLHDEVERAYGPPGAWGPLYDEVRMDPYDLRWPEVQCEDPRGIYDQVAADMDAVEASSLPFELRGHLV | binds | –
4 | podocin (protein, UniProt Q8K4G9 1-383) MDSRARSSSRKTHGRGSRSSSRDDKKSKAGRGNRGRARPDAGAERQSAGRTGTREEHRAPAATVVNVDEVRSPGEEGTEVVALLESERPEEGIKPSGLGACEWLLVLSSLIFIIVTFPFSIWFCIKVVQEYERVIIFRLGHLLPGRAKGPGLFFFLPCLDTYHKVDLRLQTLEIPFHEVVTKDMFIMEIDAVCYYRMENASLLLSSLAHVSKAIQFLVQTTMKRLLAHRSLTEILLERKSIAQDVKVALDSVTCVWGIKVERTEIKDVRLPAGLQHSLAVEAEAQRQAKVRVIAAEGEKAASESLRMAAEILSGTPAAVQLRYLHTLQSLSTDKPSTVVLPLPFDMLNLLSSPSNRAQGSINYPSSPKPVEPLNPKRKDSPML | binds | –
5 | nephrin, Q9R044 37-1252 (protein) ESPVPTSAPRGFWALSENLTAVEGTTVKLWCGVRAPGSVVQWAKDGLLLGPNPKMPGFPRYSLEGDRAKGEFHLLIEACDLSDDAEYECQVGRSELGPELVSPKVILSILVSPKVLLLTPEAGSTVTWVAGQEYVVTCVSGDAKPAPDITFIQSGRTILDVSSNVNEGSEEKLCITEAEARVIPQSSDNGQLLVCEGSNPALDTPIKASFTMNILFPPGPPVIDWPGLNEGHVRAGENLELPCTARGGNPPATLQWLKNGKPVSTAWGTEHAQAVAHSVLVMTVRPEDHGARLSCQSYNSVSAGTQERSITLQVTFPPSAITILGSVSQSENKNVTLCCLTKSSRPRVLLRWWLGGRQLLPTDETVMDGLHGGHISMSNLTFLVRREDNGLPLTCEAFSDAFSKETFKKSLTLNVKYPAQKLWIEGPPEGQYIRTGTRVRLVCLAIGGNPDPSLIWFKDSRPVSEPRQPQEPRRVQLGSVEKSGSTFSRELVLIIGPPDNRAKFSCKAGQLSASTQLVVQFPPTNLTILANSSALRPGDALNLTCVSISSNPPVNLSWDKEGERLEDVAAKPQSAPFKGSAASRSVFLRVSSRDHGQRVTCRAHSEALRETVSSFYRFNVLYPPEFLGEQVRAVTVVEQGQVLLPVSVSANPAPEAFNWTFRGYRLSPAGGPRHRILSGGALQLWNVTRADDGFYQLHCQNSEGTAEALLKLDVHYAPTIRALRDPTEVNVGGSVDIVCTVDANPILPEMFSWERLGEEEEDLNLDDMEKVSKGSTGRLRIRQAKLSQAGAYQCIVDNGVAPAARGLVRLVVRFAPQVDQPTPLTKVAAAGDSTSSATLHCRARGVPNIDFTWTKNGVPLDLQDPRYTEHRYHQGVVHSSLLTIANVSAAQDYALFKCTATNALGSDHTNIQLVSISRPDPPLGLKVVSISPHSVGLEWKPGFDGGLPQRFQIRYEALETPGFLHVDVLPTQATTFTLTGLKPSTRYRIWLLASNALGDSGLTDKGIQVSVTTPGPDQAPEDTDHQLPTELPPGPPRLPLLPVLFAVGGLLLLSNASCVGGLLWRRRLRRLAEEISEKTEAGSEDRIRNEYEESQWTGDRDTRSSTVSTAEVDPNYYSMRDFSPQLPPTLEEVLYHQGAEGEDMAFPGHLHDEVERAYGPPGAWGPLYDEVRMDPYDLRWPEVQCEDPRGIYDQVAADMDAVEASSLPFELRGHLV | – | binding [4]: binds
